## Primary screen of a compound library

The chains behind the UniProt entries cited, without tags or fusion partners. Residues count along the entry.
UniProt I6X8D2, whole entry: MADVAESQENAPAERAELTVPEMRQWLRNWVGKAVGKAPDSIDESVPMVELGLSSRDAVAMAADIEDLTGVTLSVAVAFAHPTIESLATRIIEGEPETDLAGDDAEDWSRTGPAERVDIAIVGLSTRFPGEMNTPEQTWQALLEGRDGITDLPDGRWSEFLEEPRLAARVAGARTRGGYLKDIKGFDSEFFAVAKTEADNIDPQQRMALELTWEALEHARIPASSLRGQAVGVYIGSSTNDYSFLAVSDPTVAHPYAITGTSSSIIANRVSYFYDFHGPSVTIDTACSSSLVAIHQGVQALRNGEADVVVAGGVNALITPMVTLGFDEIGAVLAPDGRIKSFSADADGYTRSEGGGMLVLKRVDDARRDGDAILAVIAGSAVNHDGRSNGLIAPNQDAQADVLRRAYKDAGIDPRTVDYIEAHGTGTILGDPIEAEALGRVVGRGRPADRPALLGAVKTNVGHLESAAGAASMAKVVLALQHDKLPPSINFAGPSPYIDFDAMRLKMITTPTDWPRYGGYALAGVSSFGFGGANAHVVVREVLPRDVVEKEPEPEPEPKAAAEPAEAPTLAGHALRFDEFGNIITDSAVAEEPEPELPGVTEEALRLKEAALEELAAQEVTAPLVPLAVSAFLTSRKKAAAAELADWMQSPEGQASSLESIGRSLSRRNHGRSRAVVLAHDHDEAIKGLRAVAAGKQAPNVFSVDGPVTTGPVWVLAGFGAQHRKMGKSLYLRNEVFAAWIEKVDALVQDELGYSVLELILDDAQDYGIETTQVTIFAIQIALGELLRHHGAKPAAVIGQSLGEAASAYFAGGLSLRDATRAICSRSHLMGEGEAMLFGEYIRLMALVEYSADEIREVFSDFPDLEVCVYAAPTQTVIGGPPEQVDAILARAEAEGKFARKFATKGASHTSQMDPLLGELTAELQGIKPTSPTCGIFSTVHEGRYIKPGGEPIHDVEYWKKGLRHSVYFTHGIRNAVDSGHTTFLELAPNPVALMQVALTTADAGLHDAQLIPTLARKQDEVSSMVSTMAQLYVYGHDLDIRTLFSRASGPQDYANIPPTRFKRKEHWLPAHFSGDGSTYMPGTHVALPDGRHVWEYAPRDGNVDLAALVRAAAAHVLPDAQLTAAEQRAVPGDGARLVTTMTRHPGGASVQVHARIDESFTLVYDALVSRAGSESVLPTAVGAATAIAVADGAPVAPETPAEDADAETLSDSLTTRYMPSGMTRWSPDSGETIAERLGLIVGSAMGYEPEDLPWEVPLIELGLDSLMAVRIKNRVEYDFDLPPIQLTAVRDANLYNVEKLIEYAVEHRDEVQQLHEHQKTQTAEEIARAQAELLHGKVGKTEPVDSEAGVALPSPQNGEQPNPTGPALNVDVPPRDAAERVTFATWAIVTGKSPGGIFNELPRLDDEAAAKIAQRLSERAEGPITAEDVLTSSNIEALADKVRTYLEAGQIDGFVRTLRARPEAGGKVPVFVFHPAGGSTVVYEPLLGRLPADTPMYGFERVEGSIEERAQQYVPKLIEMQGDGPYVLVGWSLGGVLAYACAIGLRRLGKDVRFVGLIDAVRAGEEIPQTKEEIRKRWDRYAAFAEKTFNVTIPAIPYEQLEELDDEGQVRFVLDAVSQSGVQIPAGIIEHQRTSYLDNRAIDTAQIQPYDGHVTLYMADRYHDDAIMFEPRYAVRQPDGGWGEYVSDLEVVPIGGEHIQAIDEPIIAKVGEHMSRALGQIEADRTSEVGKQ
UniProt A4I591, 1-473: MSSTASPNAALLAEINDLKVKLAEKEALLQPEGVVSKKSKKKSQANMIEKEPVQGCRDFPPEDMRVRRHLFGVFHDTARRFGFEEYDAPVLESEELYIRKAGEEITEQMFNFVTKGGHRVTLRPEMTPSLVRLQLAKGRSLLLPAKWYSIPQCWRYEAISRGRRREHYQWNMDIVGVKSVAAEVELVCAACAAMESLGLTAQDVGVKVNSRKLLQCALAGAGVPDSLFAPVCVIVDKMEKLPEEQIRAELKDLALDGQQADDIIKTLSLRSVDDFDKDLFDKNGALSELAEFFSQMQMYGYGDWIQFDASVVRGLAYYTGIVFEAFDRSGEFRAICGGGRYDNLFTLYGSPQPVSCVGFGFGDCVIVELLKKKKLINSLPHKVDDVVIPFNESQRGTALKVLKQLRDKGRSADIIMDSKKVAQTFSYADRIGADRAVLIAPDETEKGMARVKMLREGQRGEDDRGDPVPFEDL
UniProt P9WNZ1, whole entry: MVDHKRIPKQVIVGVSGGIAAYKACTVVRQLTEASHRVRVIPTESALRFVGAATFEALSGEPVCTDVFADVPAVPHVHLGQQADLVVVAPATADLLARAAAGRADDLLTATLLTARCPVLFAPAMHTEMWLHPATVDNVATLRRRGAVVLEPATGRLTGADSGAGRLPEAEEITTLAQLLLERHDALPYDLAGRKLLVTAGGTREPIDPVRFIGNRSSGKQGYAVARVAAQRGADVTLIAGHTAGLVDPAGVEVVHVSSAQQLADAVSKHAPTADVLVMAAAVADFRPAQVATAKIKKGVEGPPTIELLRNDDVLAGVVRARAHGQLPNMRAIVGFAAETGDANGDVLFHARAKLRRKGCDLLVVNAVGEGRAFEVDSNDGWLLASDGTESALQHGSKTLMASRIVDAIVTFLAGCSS

The filed quantity is “Percent Effect” (%).
The record does not define 0% and 100%; most values in the screen are far below 50% and negative numbers occur (in some assays of this library far below -100).
The compounds are a random part of those screened.
Two or more numbers in one place are separate tests of the same structure; such repeats can differ widely.
A dash means the value is not listed here; it may have been measured.

A: 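Polyketide synthase Pks13, Mycobacterium tuberculosis (UniProt I6X8D2). Enzyme assay of the thioesterase domain of polyketide synthase 13; the read-out is not stated. Concentration: 30 µM. The record gives no direction; the compounds picked for IC50 retests had high values, so higher reads as stronger inhibition. Of about 67,000 compounds tested this way, about 300 (0.46%) reached 50% or more in at least one test.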
B: 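Histidine-tRNA ligase, Leishmania infantum (UniProt A4I591). Enzyme assay of histidyl-tRNA synthetase; the read-out is not stated. Concentration: 30 µM. Higher reads as stronger inhibition (inferred: compounds with an IC50 in retests scored well above the rest). The assay is labelled LdHisRS but filed under L. infantum. Size under these conditions: about 69,000 compounds, about 410 of them at 50% or above in at least one test.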
C: 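Enzyme assay of CoaBC with a phosphate dye (Biomol Green) read at 650 nm. Target: Coenzyme A biosynthesis protein CoaBC, Mycobacterium tuberculosis (UniProt P9WNZ1). Concentration: 30 µM. Direction is inferred from only a few compounds that gave an IC50; most scored high, so higher reads as stronger inhibition. Most strong results did not repeat in a second test. Of about 67,000 compounds tested this way, about 40 (0.06%) reached 50% or more in at least one test.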

| structure | A | B | C |
|---|---|---|---|
| `Cc1nccn1C1CCCN(C(=O)COC2CCCC2)C1` (centres unmarked) | -16.58 | 14.68 | 4.859 |
| `CCOCC(=O)NCCn1ccc(-c2ccccn2)n1` | -16.35 | 6.849 | 3.821 |
| `CCn1cnnc1CN(C)C(=O)c1cc(COc2cccc(F)c2)[nH]n1` | -30.1 | -11.76 | -0.6135 |
| `O=C(C1CCOC1)N1C[C@H]2CN(Cc3ccccn3)C[C@H]2C1` (some centres unmarked) | -28.74 | 13.53 | 6.17 |
| `CC(C)c1nc(C2CCCN2C(=O)c2cc(Cl)c[nH]2)no1` (centres unmarked) | -22.29 | 21.35 | 5.469 |
| `Cc1cnn(CC2CCCN2Cc2noc(C(C)(C)C)n2)c1` (centres unmarked) | -79.2 | 4.348 | 4.198 |
| `CN1CCN(C(=O)c2cnc3c(cnn3C3CCCC3)c2)CC1` | -58.34 | 3.371 | -2.828 |
| `Cc1cc(CNC(=O)Cc2cccs2)ccc1S(C)(=O)=O` | -0.07486 | 4.839 | 0.978 |
| `Cc1ccoc1C(=O)N1CC[C@@H]2O[C@@H](C)C[C@H]2C1` | -37.53 | 12.33 | 6.036 |
| `CCCc1noc(CCC(=O)N2CCN(C)CC2c2ccccc2)n1` (centres unmarked) | -20.67 | 17.58 | 7.439 |
| `FC(F)(F)c1nc(NC2CCCC2)c2ccccc2n1` | 19.4 | -1.905 | -0.4386 |
| `Cc1nc(CN2CCCC2Cn2cncn2)nc2ccccc12` (centres unmarked) | -25.84 | 39.67 | 22.22 and 22.25 |
| `Cc1cc(N(C)C)nc(N2CCn3c(C)nnc3C2)n1` | 4.085 | 10.85 | 0.1229 |
| `O=C(NC1CC1)N1C[C@H]2CN(c3ccccc3)C(=O)[C@H]2C1` | -19.52 | 13.46 | 2.188 |
| `COCC1CN(C(=O)c2cccs2)Cc2nccn2C1` (centres unmarked) | -16.79 | 13 | 0.8653 |
| `NC(=O)c1cccc(CC2CCN(C(=O)CCc3cccc(F)c3)C2)c1` (centres unmarked) | -5.036 | 12 | 2.533 |
| `Cn1ccc(C(=O)NC2CCN(c3ncccn3)CC2)cc1=O` | 71.34 | 35.71 | -0.3559 |
| `CN(C)Cc1ccc(C(=O)N2CCCC(COc3ccc(F)cc3)C2)o1` (centres unmarked) | -7.659 | 23.33 | -2.217 |
| `Cc1csc(CN2C[C@@H]3COC[C@]3(COCC(=O)N(C)C)C2)n1` | 4.964 | 0 | -6.42 |
| `CC(=O)NCCc1ccc(S(=O)(=O)N(CC(C)C)C(C)C)s1` | -5.172 | -0.9615 | -8.439 |
| `COCC1CC2(CCN(Cc3cccnc3)CC2)CN1C(C)C` (centres unmarked) | -9.373 | 9.091 | -34.87 |
| `COCCn1cc(NC(=O)C(C)CCc2ccccc2F)ccc1=O` (centres unmarked) | -24.91 | 101.7 | 4.878 |
| `Cc1csc(N2CCN(C(=O)c3cc(Cl)c[nH]3)CC2)n1` | 2.576 | 19.35 | 1.333 |
| `CN(C)c1ccc(CNC(=O)NCCc2ccccn2)cn1` | 3.804 | 7.018 | 7.578 |
| `O=C(c1ccon1)N1CCN(c2ccncc2Cl)CC1` | -8.417 | 8.108 | -7.004 |
| `CC(C)(CNC(=O)c1ccco1)NC(=O)OC(C)(C)C` | - | 7.843 | 6.748 |
| `COc1ccc(CN(Cc2cnn(C)c2)CC(C)C)cn1` | 5.134 | 5.833 | 0.3727 |
| `CC(C)CCNC(=O)C(c1cccc(F)c1)N(C)C` (centres unmarked) | -6.206 | 20 | -2.774 |
| `CC(Nc1cccc(CN2CCOC2=O)c1)C(=O)NC(N)=O` (centres unmarked) | -22.94 | 6.383 | -3.368 |
| `Cc1cnc(NCCc2c[nH]cn2)nc1-c1ccnn1C` | -25.98 | -2 | 3.218 |
| `N#Cc1c(SCCN2CCCCC2)sc2c(O)cc(O)nc12` | 21.6 | 24.74 | 0.3681 |
| `Cc1nc(C2CCCN(C(=O)Cn3ccccc3=O)C2)no1` (centres unmarked) | -4.29 | 4 | 1.064 |
| `CCN(C)C[C@@H]1CN(S(=O)(=O)c2ccc(OC)cc2)C[C@@H]1CO` | 7.06 | -12 | -4.132 |
| `Cc1cc(C2CCCCN2C(=O)CN2C(=O)OC(C)(C)C2=O)no1` (centres unmarked) | -7.754 | 18.37 | -3.471 |
| `COc1ccnc(N2CCN(C(=O)c3ccc(Cl)o3)CC2)n1` | -7.573 | 7.895 | -1.746 |
| `CCCn1cc(NC(=O)c2cccc(CN3CC[C@H](O)C3)c2)nn1` | -22.77 | 18.6 | 7.985 |
| `CC(C)(CNCc1ccc(OCc2cscn2)cc1)C(N)=O` | -5.189 | 1.01 | -0.4831 |
| `CN(Cc1cc2c(cc1OC(F)F)OCO2)Cc1nccn1C` | -14.38 | 13.21 | -21.59 |
| `COCCN(Cc1ccc(C)cc1)Cc1nccn1C` | -8.208 | 15.79 | 11.29 |
| `Cc1cccc(CN2CC3C[C@]3(NC(=O)c3cccc(F)c3)C2)n1` (some centres unmarked) | -25.93 | 13.68 | - |
| `CCc1ncc(C(=O)N(C)C(C)c2ccc3c(c2)OCCO3)cn1` (centres unmarked) | -1.71 | 12.9 | -8.755 |
| `CN(C)C(=O)c1cccn1-c1ccc2c(c1)OCCO2` | -7.027 | 8.163 | 6.777 |
| `Cc1ncncc1C(=O)N1CCOC(C)(C(=O)NC2CCCC2)C1` (centres unmarked) | - | -9.474 | 2.19 |
| `Cc1nn(C)c(N2CCOCC2)c1CNC1CCS(=O)(=O)C1` (centres unmarked) | -28.59 | 16.67 | -3.415 |
| `COc1cccc(-c2n[nH]c3c2CN(C(=O)C2=C(C)OCCO2)CC3)c1` | -34.28 | 6.25 | 8.46 |
| `COc1cc(N2C[C@H](C(=O)NCC3CC3)[C@@H]3CCO[C@@H]3C2)ncn1` | -3.951 | 19.35 | 1.85 |
| `CNS(=O)(=O)c1cccc(CNc2nccc(C(F)(F)F)n2)c1` | -29.4 | 21.43 | -3.915 |
| `CN(C)CCCN(Cc1cnn(C)c1)Cc1ccco1` | 1.667 | 5.634 | -10.6 |
| `c1cnnc(-c2noc(COCC3CCCO3)n2)c1` (centres unmarked) | - | 23.94 | 5.492 |
| `CCn1nc(C)c(CN(C)S(=O)(=O)c2cnn(C)c2)c1C` | -11.79 | 18.52 | 0.5102 |
| `Cc1ccsc1CN(Cc1ncccc1C(=O)O)C1CC1` | -34.52 | 15.38 | -4.225 |
| `O=C(NCc1cncc2c1CCN(CC1CCOC1)C2)c1ccco1` (centres unmarked) | -42.42 | 5.769 | 0.8485 |
| `Cc1cc(NC2CCc3nc(C(C)C)nn3C2)n2ncnc2n1` (centres unmarked) | 2.575 | 29.63 | -0.128 |
| `CCO[C@@H]1CC[C@H]2[C@H]1OCCN2C(=O)c1ccc(OC)c(F)c1` | 5.727 | 13.79 | - |
| `Cc1nc(C)c(C(=O)Nc2cccc(CN3CCC(CO)CC3)c2)o1` | 1.468 | 5.319 | 2.746 |
| `COc1c(C2CCCN2C(=O)CCNc2ncccn2)c(C)nn1C` (centres unmarked) | -29.05 | 17.31 | 0.7168 |

For reference, 3 entries once more:

For CN(C)C(=O)c1cccn1-c1ccc2c(c1)OCCO2 the result was A: -7.027%; B: 8.163%; C: 6.777%.
For CN(C)Cc1ccc(C(=O)N2CCCC(COc3ccc(F)cc3)C2)o1 (centres unmarked) the result was A: -7.659%; B: 23.33%; C: -2.217%.
For Cc1ccoc1C(=O)N1CC[C@@H]2O[C@@H](C)C[C@H]2C1 the result was A: -37.53%; B: 12.33%; C: 6.036%.

Source: ChEMBL document CHEMBL3988442, “University of Dundee, Small-Polar-MMV Screening Library” (2021).